Data: patent publication US20150174112A1, “COMPOSITIONS FOR TREATING FRAGILE X AND OTHER DISORDERS METHODS OF USE THEREOF, AND SCREENING FOR COMPOUNDS FOR FRAGILE X AND OTHER DISORDERS” (EMORY UNIVERSITY, priority 2005, published 2015)
At least one structure is not confirmed: it was looked up by name or label, or the drawing left a doubt.

How the values were obtained:
[1] = system: mushroom body structure in dfmr1 null fly brain; experiment: Staining and analysis of mushroom body morphology; type: in vivo, Drosophila
From the text: A striking morphological phenotype of dfmr1 deficiency in Drosophila involves structural abnormalities of the mushroom body in the fly brain. The mushroom body, important for Drosophila learning and memory, is an axon-like fiber structure composed of three paired neuronal lobes (the α, β, and γ lobes). In dfmr1 null flies, the β lobes, which normally terminate at the midline cleft, often cross through the midline. In addition, dfmr1 null flies also have missing or misdirected α and β lobes, as well as truncated or over-branched lobes. […] To test whether compounds identified in the viability screen could rescue the mushroom body morphology, 0- to 2-day-old dfmr1 mutant adults were examined that developed on LF supplemented with four of the nine compounds identified above (GABA, nipecotic acid, creatinine, and isopilocarpine).
Brains from 0- to-2-day-old adults were dissected, fixed, and stained. Anti-Fascicilin II (ID4, Developmental Studies Hybridoma Bank) was used at 1:10 dilution and Alexa anti-mouse secondary antibody (Molecular probes) 1:100. Confocal microscopy was performed using a Leica Scanning laser confocal microscope. Neuronal lobe abnormalities were analyzed and scored by obtaining optical stacks of the α and β lobes as described.

Futsch = experiment: Quantitative Western analysis of Futsch protein in fly head lysates; type: in vivo, Drosophila; conditions: flies raised on LF with drug at effective dosage
From the text: FIG. 3A illustrates a representative Western blot showing Futsch expression in w^1118, dfmr1^3+/−, and dfmr1^3−/− head lysates. Flies were raised on LF with or without drug supplements using the effective dosages. Heads from 0- to 2-day old adult flies were used to prepare protein lysates. β-actin was used as a loading control.
FIG. 3B illustrates the quantification of relative Futsch protein level from multiple Western blots using Kodak Imaging System software. The quantifications were based on duplicate Western analyses obtained from triplicate collections of […] from two separate drug treatments (6 sets of samples total). The futsch levels were first normalized to β-actin levels, then plotted as the percentage of change of each treatment/genotype compared to w^1118 (no drug), which was set as 100%.
Additionally, it was tested whether the same four compounds could rescue the biochemical phenotype of Futsch over-expression that is associated with dfmr1 deficiency. The mRNA of Futsch is normally bound and translationally repressed by dFmrp. Thus, loss of dFmrp results in excess Futsch translation.
Quantitative Western analyses were performed. […] The signals were quantified using the Kodak Imaging System software.

CN1CC(=O)NC1=N [creatinine]
mushroom body defects of dfmr1 mutant adults (in words) ([1]; 0- to 2-day-old adults developed on LF supplemented with drug at optimal viability dose): significantly improved | brain structural abnormality (mushroom body formation) in treated dFmr1 flies (in words) ([1]; Example 2): significant suppression | elevated Futsch protein level in dfmr1 null flies (in words) (Futsch): did not significantly influence
